These are yes or no findings as the source states them, for the method shown. Some results given as binding are weak or reduced against the parent protein; the word gives no strength.
T1: human GITR (hGITR), form not stated (human) (UniProt Q9Y5U5)
T1 sequence: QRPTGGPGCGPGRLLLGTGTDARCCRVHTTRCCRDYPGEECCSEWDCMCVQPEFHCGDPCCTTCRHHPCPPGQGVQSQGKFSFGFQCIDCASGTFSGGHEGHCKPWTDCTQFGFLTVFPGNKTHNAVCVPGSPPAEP


Experiments:
[1] = target: T1, human GITR (hGITR), form not stated (human); assay: ELISA on a panel of human TNFRs
[2] = target: T1, human GITR (hGITR), form not stated (human); assay: sandwich ELISA against hGITR

binding [1]	binding [2]	Binder
binds	–	MAB3 (IgG1 kappa) (antibody, V domains shown) VH: QVQLVESGGGLVQPGGSLRLSCAASGFSLSSYGVDWVRQAPGKGLEWLGVIWGGGGTYYTASLMGRFTISRDNSKNTLYLQMNSLRAEDTAVYYCAKHAYGHDGGFAMDYWGQGTLVTVSS VL: EIVMTQSPATLSVSPGERATLSCRASQSVSSNLAWYQQKPGQAPRLLIYGASNRATGIPDRFSGSGSGTDFTLTISRLEPEDFAVYYCGQSYSYPFTFGQGTKLEIKR
–	binds	MAB1 (murine monoclonal GITR agonist antibody) (antibody, V domains shown) VH: QVQLKESGPGLVAPSQSLSITCTVSGFSLRSYGVDWVRQPPGKGLEWLGVIWGGGGTNYNSALMAKLSISKDKSKSQVFLKMNSLQTDDTAMYYCAKHAYGHDGGFAMDYWGQGTSVTVSS VL: NIVMTQSPKSMSMSVGERVTLSCKASENVDTFVSWYQQKPDHSPKLLIYGASNRYTGVPDRFTGSGSATDFTLTISSVQAEDLADYHCGQSYSYPFTFGSGTKLEIK
